Some entries share one result that the patent states for a list of compounds. For at least one compound, name, drawing or mass did not settle the structure.
How the values were obtained:
Assay type in all cases: in vivo
[1] = tested on: kidney bean stem rot fungus (Sclerotinia sclerotiorum); experiment: Test Example 4: kidney bean stem rot control by foliar spray; conditions: 500 ppm spray on kidney bean (NAGAUZURA SAITOU); four days after inoculation
[2] = tested on: cucumber target leaf spot fungus (Corynespora cassiicola); experiment: Test Example 9: cucumber target leaf spot control by foliar spray; conditions: 200 ppm spray on cucumber (SAGAMI HANJIRO); inoculated after one day; 7 days under high humidity
[3] = tested on: soybean rust fungus (Phakopsora pachyrhizi); experiment: Test Example 7: soybean rust control by foliar spray; conditions: 200 ppm spray on soybean (KUROSENGOKU); inoculated after 2 days; assessed after 3 + 14 days
[4] = tested on: wheat leaf blotch fungus (Septoria tritici); experiment: Test Example 5: wheat leaf blotch control by foliar spray; conditions: 500 ppm spray on wheat (APOGEE); inoculated after 4 days; assessed after 3 days + 14 to 18 days
[5] = tested on: cucumber powdery mildew fungus (Sphaerotheca fuliginea); experiment: Test Example 6 and Comparative Test Example: cucumber powdery mildew control by foliar spray; conditions: 500 ppm spray on cucumber (SAGAMI HANJIRO); 8 days after inoculation
[6] = tested on: cucumber anthracnose fungus (Colletotrichum lagenarium); experiment: Test Example 10: cucumber anthracnose control by foliar spray; conditions: 200 ppm spray on cucumber (SAGAMI HANJIRO); inoculated after one day; assessed after 1 + 6 days
[7] = tested on: barley scald fungus (Rhynchosporium secalis); experiment: Test Example 8: barley scald control by foliar spray; conditions: 200 ppm spray on barley (NISHINOHOSHI); inoculated after 2 days; assessed after 3 + 7 days

Measured: area of lesion spots on the treated plant relative to that on an untreated plant

COc1cccc(-n2nnn(C)c2=O)c1COc1ccc(Oc2ccccc2)cc1C [compound 89]
≤ 30%: all assays above

COc1cccc(-n2nnn(C)c2=O)c1COc1ccc(-c2cccc(C)c2)cc1C [compound 16]
not listed: [4]
≤ 30%: all other assays above

CCOC(C)c1ccc(OCc2c(C)cccc2-n2nnn(C)c2=O)c(C)c1 (stereo not drawn) [compound 110]
≤ 30%: all assays above

COc1cccc(-n2nnn(C)c2=O)c1COc1ccc(-c2cccc(Cl)c2)cc1C [compound 10]
≤ 30%: all assays above

COc1cccc(-n2nnn(C)c2=O)c1COc1ccc(-c2ccccc2F)cc1C [compound 23]
≤ 30%: all assays above

CCc1cccc(-n2nnn(C)c2=O)c1COc1ccc(-c2cccc(Cl)c2)cc1C [compound 25]
not listed: [1]
≤ 30%: all other assays above

COc1cccc(-n2nnn(C)c2=O)c1COc1ccc(-c2ccccc2Cl)cc1C [compound 9]
≤ 30%: all assays above

Cc1cc(Oc2ccccc2C)ccc1OCc1c(C)cccc1-n1nnn(C)c1=O [compound 63]
≤ 30%: all assays above

CCc1ccccc1Oc1ccc(OCc2c(OC)cccc2-n2nnn(C)c2=O)c(C)c1 [compound 60]
not listed: [1] | [6]
≤ 30%: all other assays above

COc1cccc(-c2ccc(OCc3c(OC)cccc3-n3nnn(C)c3=O)c(C)c2)c1 [compound 18]
not listed: [4]
≤ 30%: all other assays above

CCc1cccc(-n2nnn(C)c2=O)c1COc1cc(C)c(-c2ccccc2C#N)cc1C [compound 136]
not listed: [6]
≤ 30%: all other assays above

CCc1cccc(-n2nnn(C)c2=O)c1COc1ccc(-c2cccc(C#N)c2)cc1C [compound 27]
not listed: [1]
≤ 30%: all other assays above

COc1ccccc1-c1ccc(OCc2c(C)cccc2-n2nnn(C)c2=O)cc1C [compound 131]
not listed: [4]
≤ 30%: all other assays above

Cc1cccc(-n2nnn(C)c2=O)c1COc1ccc(-c2ccccc2)cc1C(F)(F)F [compound 132]
not listed: [1] | [6]
≤ 30%: all other assays above

CCc1cccc(-n2nnn(C)c2=O)c1COc1cc(C)c(-c2ccccc2F)cc1C [compound 139]
not listed: [1] | [6]
≤ 30%: all other assays above

Source: patent US9512090B2, “Tetrazolinone compound and use thereof” (Sumitomo Chemical Company, Limited, priority 2013, dated 2016)
